Data from patent US6979553B2, “Use of Nernstein voltage sensitive dyes in measuring transmembrane voltage” (Caliper Life Sciences, Inc., priority 1999, dated 2005).
For at least one compound, name, drawing or mass did not settle the structure.

System: peripheral blood T lymphocytes
Type: cell-based, human
Settings: resting T lymphocytes; 200 nM
Text: Resting or mitogen activated peripheral blood T lymphocytes (90% CD3+) were flowed through the chip and mixed with ion channel modulators accessed through the Sipper™ capillary. Average DiBAC4(3)/Syto 62 ratios ±SE (n=2–6) are shown.
Thus, cell based assays of calcium flux and membrane potential were run in the lab-on-a-chip system. A novel approach for measurement of membrane potential was used to detect hyperpolarization and depolarization with high sensitivity. The microfluidic format reduced reagent, sample and cell consumption. As few as 50–200 cells and as little as 10 nl of sample were used per test. […]

CC(C)C[C@@H]1NC(=O)[C@H](C)NC(=O)[C@H]([C@@H](C)O)NC(=O)[C@H](CCC(=O)O)NC(=O)[C@@H]2CCCN2C(=O)[C@H](C)NC(=O)[C@H](CCCCN)NC(=O)[C@@H]2CSSC[C@@H](C(=O)N[C@@H](CCC(N)=O)C(=O)N[C@@H](CCC(N)=O)C(=O)N[C@@H](Cc3cnc[nH]3)C(N)=O)NC(=O)[C@H](CCCNC(=N)N)NC(=O)[C@H](CCCNC(=N)N)NC(=O)[C@H](C)NC(=O)[C@H](CSSC[C@H](N)C(=O)N[C@@H](CC(N)=O)C(=O)N2)NC1=O [apamin]
change in DiBAC4(3)/Syto 62 ratio (depolarization): not
